This data set is described as follows: general procedure: Fmoc solid-phase peptide synthesis; Rink amide resin; HATU. The note with it: conjugation step.

As to Fl-ahx-RRRRR, the conjugation yield came out at 29% isolated yield.

Source of the values: US6730293B1 (CellGate, Inc., priority 1999, dated 2004).
